Source: PMC11868421
These are yes or no findings as the source states them, for the method shown. In cells and extracts the contact can be indirect. Some binding calls cover weakened binding; strength is not graded here. Tags and fused reporters may be left off the sequences shown.

Amino acid sequences for entries named in this document (tags omitted).
UniProt O00487: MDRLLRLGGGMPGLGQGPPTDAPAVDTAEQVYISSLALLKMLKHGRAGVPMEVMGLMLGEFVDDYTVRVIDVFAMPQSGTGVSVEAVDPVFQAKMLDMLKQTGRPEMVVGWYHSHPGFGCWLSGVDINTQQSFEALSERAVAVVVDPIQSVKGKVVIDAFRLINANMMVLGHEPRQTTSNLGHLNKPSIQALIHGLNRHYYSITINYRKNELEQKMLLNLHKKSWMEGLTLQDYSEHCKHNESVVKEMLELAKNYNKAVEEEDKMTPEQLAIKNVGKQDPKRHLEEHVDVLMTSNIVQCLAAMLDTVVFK

Biological target: GFP-PSMD14 (UniProt O00487)
Test: co-IP; HEK293T cells expressing GFP-PSMD14 transfected with FLAG-tagged full-length or truncated CARM1; lysates immunoprecipitated with anti-GFP antibodies, immunoblotted with anti-FLAG antibodies

Binder | binding
FLAG-tagged C-terminal truncated CARM1 (1-453 aa) (domain or fragment, UniProt Q86X55 1-453) MAAAAAAVGPGAGGAGSAVPGGAGPCATVSVFPGARLLTIGDANGEIQRHAEQQALRLEVRAGPDSAGIALYSHEDVCVFKCSVSRETECSRVGKQSFIITLGCNSVLIQFATPNDFCSFYNILKTCRGHTLERSVFSERTEESSAVQYFQFYGYLSQQQNMMQDYVRTGTYQRAILQNHTDFKDKIVLDVGCGSGILSFFAAQAGARKIYAVEASTMAQHAEVLVKSNNLTDRIVVIPGKVEEVSLPEQVDIIISEPMGYMLFNERMLESYLHAKKYLKPSGNMFPTIGDVHLAPFTDEQLYMEQFTKANFWYQPSFHGVDLSALRGAAVDEYFRQPVVDTFDIRILMAKSVKYTVNFLEAKEGDLHRIEIPFKFHMLHSGLVHGLAFWFDVAFIGSIMTVWLSTAPTEPLTHWYQVRCLFQSPLFAKAGDTLSGTCLLIANKRQSYDISIV | binds
FLAG-tagged C-terminal truncated CARM1 (1-287 aa) (domain or fragment, UniProt Q86X55 1-287) MAAAAAAVGPGAGGAGSAVPGGAGPCATVSVFPGARLLTIGDANGEIQRHAEQQALRLEVRAGPDSAGIALYSHEDVCVFKCSVSRETECSRVGKQSFIITLGCNSVLIQFATPNDFCSFYNILKTCRGHTLERSVFSERTEESSAVQYFQFYGYLSQQQNMMQDYVRTGTYQRAILQNHTDFKDKIVLDVGCGSGILSFFAAQAGARKIYAVEASTMAQHAEVLVKSNNLTDRIVVIPGKVEEVSLPEQVDIIISEPMGYMLFNERMLESYLHAKKYLKPSGNMFP | no binding
